From PubChem BioAssay record AID1053133 (Broad Institute, 2014).

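Plate-reader measure of the Venus reporter marking one vaccinia stage in infected cells (the cell line is not named here); read time unknown. The test concentration is not given here. Percent change in Venus reporter signal; lower (more negative) values mean stronger inhibition of that viral stage.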

Values are in %. The controls that fix the scale are not given here. Common to all entries: measured here: Venus reporter, other viral stage. Part of the compounds only, not a random draw; the main read-out is not listed here.

- COc1cccc(C#Cc2ccc([C@@H]3[C@@H](CO)N(C(=O)C4CCCC4)[C@H]3C#N)cc2)c1 | activity change (Venus) -20.06%
- C[C@H]1CN([C@@H](C)CO)C(=O)c2ccccc2-c2ccccc2CO[C@H]1CN(C)Cc1ccc(C(F)(F)F)cc1 | activity change (Venus) -47.16%
- c1ncc(-c2ccc(C3[C@@H]4CN(Cc5ccc6c(c5)OCO6)C[C@H]3N4)cc2)cn1 (stereo partly shown) | activity change (Venus) -44.21%
- N#C[C@@H]1[C@H](c2ccc(-c3cccc(F)c3)cc2)[C@@H](CO)N1C(=O)NC1CCCCC1 | activity change (Venus) -34.59%
- CCC(=O)N1CCCCN2[C@H](CO)[C@@H](c3ccc(C#Cc4ccccc4)cc3)[C@@H]2C1 | activity change (Venus) -29.33%
- COc1ccccc1NC(=O)N(C)C[C@H]1OCc2ccccc2-c2c(n(C)c3ccccc23)C(=O)N([C@@H](C)CO)C[C@@H]1C | activity change (Venus) -28.61%
- O=C(C1CCCCC1)N1CC[C@@H]2[C@@H](CO)Nc3ccc(C#Cc4ccc(F)cc4)cc3[C@@H]21 | activity change (Venus) -37.76%
- COC(=O)[C@]1(CCS(=O)(=O)c2ccccc2)N=C(c2ccc(OCCCO)cc2)O[C@@H]1c1ccccc1CN=[N+]=[N-] | activity change (Venus) -40.3%
- O=C(C1CCCC1)N1CC[C@@H]2[C@H](CO)Nc3ccc(C4=CCCCC4)cc3[C@@H]21 | activity change (Venus) -59.94%
- C[C@@H]1CN([C@@H](C)CO)C(=O)c2c(c3ccccc3n2C)-c2ccccc2CO[C@H]1CN(C)S(=O)(=O)c1ccc(F)cc1 | activity change (Venus) -68.53%
- CCCC#Cc1ccc([C@@H]2[C@@H](CO)N3C(=O)CN(C(=O)Nc4ccc(F)cc4)C[C@H]23)cc1 | activity change (Venus) -33.93%
- C[C@H]1CN([C@@H](C)CO)C(=O)c2cc(NC(=O)Cc3ccccc3)ccc2O[C@@H]1CN(C)Cc1ccc(Cl)c(Cl)c1 | activity change (Venus) -47.36%
- C[C@@H]1CN([C@H](C)CO)C(=O)Cc2cc(NC(=O)Nc3ccc(F)cc3)ccc2O[C@@H]1CN(C)Cc1ccc(Cl)c(Cl)c1 | activity change (Venus) -45.67%
- C[C@H]1CCCCO[C@@H](CN(C)C(=O)Cc2ccccc2)[C@@H](C)CN([C@@H](C)CO)C(=O)c2cc(NC(=O)Cc3ccccc3)ccc2O1 | activity change (Venus) -33.79%
- C[C@@H]1CN([C@H](C)CO)C(=O)c2ccccc2-c2ccccc2CO[C@@H]1CN(C)C(=O)Nc1cccc(Cl)c1Cl | activity change (Venus) -28.89%
- C[C@H]1CN([C@@H](C)CO)C(=O)c2cc(C#Cc3cccc(F)c3)cnc2O[C@H]1CN(C)CC1CCCC1 | activity change (Venus) -51.01%
- CN(C)c1ccc2c(c1)[C@@H]1C[C@@H](CC(=O)NCc3ccc(Oc4ccccc4)cc3)O[C@@H](CO)[C@@H]1O2 | activity change (Venus) -72.71%
- C[C@@H]1CN([C@@H](C)CO)C(=O)c2cc(NC(=O)NC3CCCCC3)ccc2O[C@H]1CN(C)Cc1ccc(Oc2ccccc2)cc1 | activity change (Venus) -30.7%
- O=C1CN(Cc2ccc(F)cc2)C[C@@H]2[C@@H](c3ccc(Br)cc3)[C@@H](CO)N12 | activity change (Venus) -79.48%
- COc1ccc2c3c(n(C)c2c1)[C@@H](CO)N(C(=O)Nc1ccc(F)cc1)CC31CCN(Cc2cccc(F)c2)CC1 | activity change (Venus) -54.35%
- C[C@@H]1CCCCO[C@H](CN(C)Cc2ccc(Cl)c(Cl)c2)[C@@H](C)CN([C@@H](C)CO)C(=O)c2cc(NC(=O)Nc3ccccc3)ccc2O1 | activity change (Venus) -37.81%
- Cc1ccc(S(=O)(=O)Nc2ccc3c(c2)C(=O)N([C@H](C)CO)C[C@H](C)[C@H](CN(C)S(=O)(=O)c2c(C)noc2C)OCCCC[C@H](C)O3)cc1 | activity change (Venus) -41.91%
- CCCC#Cc1ccc2c(c1)O[C@H](CN(C)S(=O)(=O)c1cccc(OC)c1)[C@H](C)CN([C@H](C)CO)S2(=O)=O | activity change (Venus) -24.28%